Results as given in PubChem BioAssay AID2417 (National Center for Advancing Translational Sciences (NCATS), 2010).
In all, about 140,000 compounds went through this assay and about 4,300 (3.1%) were called active. The shares of active, inactive and inconclusive entries below differ from those in the screen.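 How the source made its calls: active means readout at or below -70, meaning at least 70% loss of cells showing the perinucleolar compartment, a nuclear body marking cancer cells; inconclusive means readout between -30 and a set limit; inactive means the rest.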

Assay: High Content Assay for Compounds that inhibit the Assembly of the Perinucleolar Compartment;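 further: plate controls were DMSO wells for no effect and camptothecin positive control wells for full effect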
Conditions: PC3M PTB-GFP, PNC prevalence imaging, 16 h; at 10 µM; active compounds read low
Outline: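 Compounds are pinned in duplicate onto adhered PC3M cells stably expressing GFP-tagged PTB and incubated 16 h at 37 C. Cells are then fixed, nuclei stained with Hoechst, and PNC-positive cells counted.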

SMILES	activity change (PNC), negative = inhibition
Cc1ccc(-c2nnc(N3CCN(C(=O)Cn4c(=O)n(C)c5ccccc54)CC3)c3ccccc23)cc1	inconclusive: -47.9%
CCCN(CCC)C(=O)C1CC(=O)OC12CCOC(C)(C)C2 (stereo unspecified)	inconclusive: -31.7%
CN(C)CCNc1oc(COc2ccc(Cl)cc2)nc1C#N	inconclusive: -34%
CCCC(=O)Nc1ccc2nc(SCC(=O)Nc3nccs3)sc2c1	inconclusive: -64.7%
Cc1nc(NCCCO)c(C#N)c2c1COC(C)(C)C2	active: -122%
CCc1nc(SCC(=O)Nc2ccc(C(=O)O)cc2)n[nH]1	inconclusive: -39.1%
CCSc1ncc(Cl)c(C(=O)Nc2sc3c(c2C(=O)NCc2cccnc2)CCCC3)n1	inactive: -19.6%
Nc1ccc(S(=O)(=O)NNC(=O)C(=O)NNc2ccccn2)cc1	inconclusive: -55%
N#Cc1ccc(-c2ccco2)nc1SCC(=O)c1ccc(Cl)cc1	inactive: -5.93%
CCN1CCCC1CNCc1cccc(OC)c1OCc1ccc(F)cc1 (stereo unspecified)	inactive: 19.3%
COc1cc(S(=O)(=O)NCc2ccccc2)ccc1F	inactive: 10.8%
CC(=O)N1CCC(=NNC(=O)c2cccs2)CC1	active: -109%
COc1ccc(NC(=S)N2CCN(C(=O)C3CCCO3)CC2)c(OC)c1 (stereo unspecified)	inconclusive: -42.1%
COc1ccc(NC(=O)Nc2cccc([N+](=O)[O-])c2)cc1Cl	inconclusive: -47%
CCOc1ccccc1Nc1nc(-c2sc(NC(=O)c3cccc(Cl)c3)nc2C)cs1	inactive: -6.77%
CCOC(=O)C1CCN(c2nc(-c3ccccc3)nc3c2oc2ccccc23)CC1	inconclusive: -51.2%
COc1cccc(CN(C(=O)Cc2c[nH]c3ccccc23)C(C(=O)NC2CCCCC2)c2cccs2)c1 (stereo unspecified)	inconclusive: -74.3%
CN(C)c1ccc(C2N3CC4(C)CN2CC(C)(C3)C4O)cc1 (stereo unspecified)	inactive: 2.22%
Cc1ccc(NC(=O)CSc2n[nH]c(=O)n2C2CC2)cc1S(=O)(=O)N1CCOCC1	inconclusive: -31.1%
Cc1ccc(/C=N/n2c(-c3ccco3)n[nH]c2=S)s1	active: -113%
CC(C)(C)C(=O)Nc1ccccc1C(=O)Nc1ccncc1	active: -100%
CN(C)S(=O)(=O)N1CCN(S(=O)(=O)c2ccc(F)cc2)CC1	inconclusive: -49.7%
CCOC(=O)NN1C(=O)c2ccccc2NC1c1ccc(N(C)C)cc1 (stereo unspecified)	inactive: 165%

SMILES	activity change (PNC), negative = inhibition
Fc1ccc(-c2n[nH]c(=S)n2/N=C/c2c[nH]c3ccccc23)cc1	inactive: 28.9%
Cc1ccc(S(=O)(=O)C2C(=O)N(C)C3(C)CC2c2ccccc2O3)cc1C (stereo unspecified)	inconclusive: -33.6%
CC(=O)Nc1cc(N2C(=O)CCC2=O)ccc1Cl	active: -82%
O=C(CSc1nnc(-c2ccccc2)o1)Nc1ccccc1F	inconclusive: -34.4%
CCn1c2ccccc2c2cc(NC(=O)COC(=O)c3cc(OC)c(OC)cc3OC)ccc21	inactive: -2.51%
CCCCc1ccc(NC(=S)Nc2cccnc2)cc1	inconclusive: -40.7%
Cc1ccc(C2=NN(CC(=O)NCc3ccccn3)C(=O)CC2)cc1	inconclusive: -31.1%
C(#CCN1CCOCC1)COC(c1ccccc1)c1ccccc1	inconclusive: -36.6%
CCOC(=O)C1CCN(C(=O)Cn2cc3c(n2)CCC(C)C3)CC1 (stereo unspecified)	inactive: -12.2%
CSc1cnc2c(=O)[nH]c(=O)n(C)c2n1	inconclusive: -60.1%
Cc1ccc(-c2nnn(CC(=O)N(Cc3cccs3)C(C(=O)NC(C)(C)C)c3ccco3)n2)o1 (stereo unspecified)	inactive: -10.3%
CCCC(=O)NCCCc1nc2ccccc2[nH]1	inconclusive: -41.6%
CCC(C)[C@H](NC(=O)Nc1ccc(S(N)(=O)=O)cc1)C(=O)O (stereo partly specified)	inconclusive: -60.1%
CCOC(=O)c1ccc(NC(=O)Cn2nnc(-c3ccccc3F)n2)cc1	inactive: 12.4%
Cc1cc(Cl)ccc1OCC(=O)OCC(=O)Nc1ccc(F)c([N+](=O)[O-])c1	inconclusive: -44.4%
O=C(NCc1cccnc1)NC1(C(F)(F)F)Oc2ccccc2O1	inconclusive: -38.9%
CCOCC(=O)Nc1cccc(C(=O)OCC)c1	inactive: -8.53%
CC1(C)CC(=O)C=C(NC2CCCCCCC2)C1	inactive: -26.6%
c1ccc(-c2n[nH]c(-c3ccccn3)n2)cc1	inconclusive: -33.4%
Cc1cc(C(=O)N/N=C2\CC(=O)CC(C)(C)C2)c(C)n1-c1ccccc1	active: -94.6%
CC1CCC(C(C)C)C(OC(=O)C2=C3c4ccccc4S(=O)(=O)N3CC2)C1 (stereo unspecified)	inconclusive: -65.2%
O=C1OCC(CO)(CO)N=C1NNc1ccc(Cl)c(Cl)c1	inactive: 22%
COc1ccc(C(C)=O)cc1COC(=O)CNC(=O)c1ccccc1F	inconclusive: -37.1%

SMILES	activity change (PNC), negative = inhibition
CCCCCCNc1cc2n(c(=O)n1)CCc1cc(OC)c(OC)cc1-2	inconclusive: -41.3%
O=C(Nc1ccc2c(c1)OCO2)N1CCN(C(=O)C2CCCO2)CC1 (stereo unspecified)	active: -100%
c1ccc(Cn2c(SCc3nc4ccccc4s3)nnc2-c2ccco2)cc1	inconclusive: -31.1%
CC1CCC/C(=N/NC(=O)c2ccccc2-n2cccc2)C1 (stereo unspecified)	active: -109%
O=S(=O)(/N=C(\Nc1ccc(F)cc1)C(F)(F)F)c1ccccc1	inconclusive: -34.8%
COc1cccc(C(=O)COc2ccccc2N2C(=O)C3C4C=CC(C4)C3C2=O)c1 (stereo unspecified)	inconclusive: -33.2%
O=C(CSc1ncnc2c1oc1ccccc12)OCc1ccccc1	inactive: 20.8%
CCOC(=O)CSCC(=O)N1N=C(c2cccs2)CC1c1ccc(F)cc1 (stereo unspecified)	inconclusive: -35.6%
O=C(CCCc1cccs1)Nc1nc(-c2ccc(F)cc2)cs1	inactive: 18.7%
Cc1ccc(NC2=C/C(=N/S(=O)(=O)c3cccs3)c3ccccc3C2=O)cc1	active: -101%
Cc1nc2ncnn2c(C)c1CCC(=O)NCc1ccccc1	inconclusive: -37.2%
O=C(Nc1ccccc1F)c1ccc(S(=O)(=O)NCC2CCCO2)cc1 (stereo unspecified)	inconclusive: -32.1%
O=C1C=C(O)CC(c2ccc(Cl)cc2)C1 (stereo unspecified)	inconclusive: -60%
Cc1cc(N2CCN(S(=O)(=O)c3ccc(Cl)cc3)CC2)c2ccccc2n1	inconclusive: -45.9%
COCCN(C(=O)CCC(=O)Nc1cccnc1)C(C(=O)NC1CCCCC1)c1ccccc1 (stereo unspecified)	inconclusive: -39.2%
CCOC(=O)c1c(NC(=S)Nc2cccc(C)c2)sc2c1CC(C)(C)SC2	inconclusive: -44%
CCCn1c(SCC(=O)c2cc(OC)ccc2OC)nnc1-c1ccco1	inconclusive: -52.5%
Cc1cccc(NC(=S)N2CCN(Cc3ccccc3)CC2)c1C	inconclusive: -32.1%
CC(C)Cc1cc(C(=O)NCc2cccnc2)no1	inconclusive: -36.9%
COC(=O)c1cc(OC)c(OC)cc1NC(=O)CSc1nnnn1Cc1ccccc1	inactive: 20.6%
COc1ccc(NC(=O)C(NC(=O)Cc2cccs2)c2ccccc2)cc1 (stereo unspecified)	inconclusive: -38.7%
O=S(=O)(Cc1ccccc1)c1cnc2ccccc2n1	inactive: -28.7%
COc1ccc2ccccc2c1CNCc1ccccn1	inconclusive: -32.5%

SMILES	activity change (PNC), negative = inhibition
COC(=O)c1sccc1NC(=O)C1CC=CCC1C(=O)O (stereo unspecified)	inconclusive: -30.2%
Cc1cc(-c2[nH]nc3c2C(c2ccc(Cl)cc2)C(C#N)=C(N)O3)c(C)s1 (stereo unspecified)	inconclusive: -43%
CCN1CCN(C(=S)Nc2cccc([N+](=O)[O-])c2)CC1	inconclusive: -46.1%
CCOc1ccc(C(=O)Nc2nncs2)cc1OCC	inconclusive: -75%
COC(=O)CNC(=O)c1cccc(F)c1	inconclusive: -36.8%
CCOC(=O)c1sc(N)nc1-c1ccccc1	inconclusive: -47.6%
COc1ccc(NC(=O)c2ccc(NCCCN3CCOCC3)c([N+](=O)[O-])c2)cc1	inconclusive: -76.9%
CSc1nc(-c2ccco2)nn1C(=O)c1ccc(C)cc1	inactive: 14.2%
CCOC(=O)COn1c(-c2cccc(Cl)c2)nc2ccc([N+](=O)[O-])cc21	inconclusive: -55.8%
O=C(c1cccc(Cl)c1)N1CCN(C(=O)c2ccccc2F)CC1	inconclusive: -66.1%
Cc1ccc(C(=O)CN2/C(=C(\O)c3ccccc3)C(=O)c3ccccc3S2(=O)=O)c(C)c1	inactive: 17.4%
O=C1C2CCCN2C(c2ccccc2)N1c1ccc(Cl)cc1 (stereo unspecified)	inconclusive: -64.8%
CCC1SC2=NC(C)=C(C(=O)OCC(C)C)C(/C=C/c3ccccc3OC)N2C1=O (stereo unspecified)	inactive: -6.5%
O=C(CN1C(=O)CNC1=O)Nc1cccc(C(F)(F)F)c1	inconclusive: -42.9%
CN1CCN(C(=O)c2ccccc2NC(=O)Cc2ccccc2)CC1	inconclusive: -62.9%
COc1ccc(S(=O)(=O)N(Cc2cccs2)C2CCCC2)cc1	inactive: -9.73%
CCOC(=O)C(C)CC(C)C(=O)N1CCOCCOCCN(C(=O)C(C)CC(C)C(=O)OCC)CCOCC1 (stereo unspecified)	inactive: -8.93%
COc1ccc(/C=N/S(=O)(=O)c2cccs2)cc1	inconclusive: -32.5%
Cc1ccc(C(NC(=O)C(C)C)c2cc([N+](=O)[O-])c3cccnc3c2O)cc1 (stereo unspecified)	inconclusive: -34.8%
CCCn1c(CNc2ccc(Br)cc2)nc2ccccc21	inactive: 10.7%
Cc1cc(N2CCN(C(=O)c3ccco3)CC2)n2nc(C)c(-c3ccccc3)c2n1	inconclusive: -69.7%
COC(=O)c1cc(OC)c(OC)cc1NC(=S)N1CCC(C(N)=O)CC1	inconclusive: -36.8%

Molecules shown so far containing an aryl methoxy group:
SMILES	activity change (PNC), negative = inhibition
CCN1CCCC1CNCc1cccc(OC)c1OCc1ccc(F)cc1 (stereo unspecified)	inactive: 19.3%
COc1cc(S(=O)(=O)NCc2ccccc2)ccc1F	inactive: 10.8%
COc1ccc(NC(=S)N2CCN(C(=O)C3CCCO3)CC2)c(OC)c1 (stereo unspecified)	inconclusive: -42.1%
COc1ccc(NC(=O)Nc2cccc([N+](=O)[O-])c2)cc1Cl	inconclusive: -47%
COc1cccc(CN(C(=O)Cc2c[nH]c3ccccc23)C(C(=O)NC2CCCCC2)c2cccs2)c1 (stereo unspecified)	inconclusive: -74.3%
CCn1c2ccccc2c2cc(NC(=O)COC(=O)c3cc(OC)c(OC)cc3OC)ccc21	inactive: -2.51%
COc1ccc(C(C)=O)cc1COC(=O)CNC(=O)c1ccccc1F	inconclusive: -37.1%
CCCCCCNc1cc2n(c(=O)n1)CCc1cc(OC)c(OC)cc1-2	inconclusive: -41.3%
COc1cccc(C(=O)COc2ccccc2N2C(=O)C3C4C=CC(C4)C3C2=O)c1 (stereo unspecified)	inconclusive: -33.2%
CCCn1c(SCC(=O)c2cc(OC)ccc2OC)nnc1-c1ccco1	inconclusive: -52.5%
COC(=O)c1cc(OC)c(OC)cc1NC(=O)CSc1nnnn1Cc1ccccc1	inactive: 20.6%
COc1ccc(NC(=O)C(NC(=O)Cc2cccs2)c2ccccc2)cc1 (stereo unspecified)	inconclusive: -38.7%
COc1ccc2ccccc2c1CNCc1ccccn1	inconclusive: -32.5%
COc1ccc(NC(=O)c2ccc(NCCCN3CCOCC3)c([N+](=O)[O-])c2)cc1	inconclusive: -76.9%
CCC1SC2=NC(C)=C(C(=O)OCC(C)C)C(/C=C/c3ccccc3OC)N2C1=O (stereo unspecified)	inactive: -6.5%
COc1ccc(S(=O)(=O)N(Cc2cccs2)C2CCCC2)cc1	inactive: -9.73%
COc1ccc(/C=N/S(=O)(=O)c2cccs2)cc1	inconclusive: -32.5%
COC(=O)c1cc(OC)c(OC)cc1NC(=S)N1CCC(C(N)=O)CC1	inconclusive: -36.8%

3 compounds from above, sorted by count of non-hydrogen atoms, rising:
SMILES	activity change (PNC), negative = inhibition
CCCn1c(CNc2ccc(Br)cc2)nc2ccccc21	inactive: 10.7%
CCOC(=O)COn1c(-c2cccc(Cl)c2)nc2ccc([N+](=O)[O-])cc21	inconclusive: -55.8%
Cc1ccc(C(=O)CN2/C(=C(\O)c3ccccc3)C(=O)c3ccccc3S2(=O)=O)c(C)c1	inactive: 17.4%
